Experimental data from PubChem BioAssay (NCATS).
Values joined by “and” are separate entries in the source; they are usually repeats but may differ in a detail not shown here. Equal values may be shown once. The inconclusive results got no clear call from the source; some entries with a clear call stand among them for comparison. Potencies beside an inconclusive call are fits to weak or partial responses and may not hold up. Active and inactive are the calls of the source. Calls follow the shape of the dose curve; as a rule, active = well fitted cell-killing curve with a large enough effect; inconclusive = small, poorly fitted or top-dose-only effect, or effect the other way; inactive = flat fitted curve, though single readings scatter.

test: qHTS for Inhibitors of Ubiquitin-specific Protease USP2a Using CHOP2 as the Reporter: Cytotox Assay (AID 652170); conditions: HCT116 viability, CellTiter-Glo luminescence, 72 h; activity change, negative = cytotoxicity: at 46.1 µM (top of the series); also: nearly all actives have a fitted effect of over 70% in size;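 as to activity change, negative = cytotoxicity: HCT116 human colon cancer cells at 600 per well; plate controls were DMSO-treated cells for no effect and wells without cells for full effect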
Method in brief: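 Cytotoxicity read as ATP luminescence (CellTiter-Glo) after 72 hr compound treatment at 37 deg C. Cells: HCT116, 600/well in DMEM plus 10% FBS. Normalization between DMSO-treated cells and cell-free wells.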
Potency is read from the fitted curve at half-maximal effect.

Structure (SMILES)	activity change, negative = cytotoxicity	Potency
Clc1nc(CN2CCOCC2)nc2sc3c(c12)CCC3	inactive: 15.9%	–
Cc1ccc(S(=O)(=O)Nc2ncccc2C(=O)Nc2nc(-c3ccccc3)cs2)cc1	–	inconclusive: 13.2 µM [cytotoxic, partial curve, poor fit]
O=C(Nc1nc(-c2ccccc2)cs1)c1ccncc1NS(=O)(=O)c1ccc2c(c1)CCC2	–	inconclusive: 14.8 µM [cytotoxic, partial curve, poor fit]
Cc1ccc(-c2cc(C(=O)Nc3cccc(S(=O)(=O)Nc4nccs4)c3)c3ccccc3n2)cc1C	inactive: 12.2%	–
O=C(Nc1nc(-c2ccccc2)cs1)c1cccc(NS(=O)(=O)c2nccs2)c1	inactive: 3.4%	–
Cc1ccc(S(=O)(=O)Nc2cccc(C(=O)Nc3nc(-c4ccccc4)cs3)c2Cl)cc1	–	active: 11.8 µM
Cc1ccc(S(=O)(=O)Nc2cnccc2C(=O)Nc2nc(-c3ccco3)cs2)cc1	–	inconclusive: 18.7 µM [cytotoxic, partial curve, poor fit]
Cc1ccc(S(=O)(=O)Nc2ccc(C)cc2C(=O)Nc2nc(-c3ccccc3)cs2)cc1	–	inconclusive: 23.5 µM [cytotoxic, partial curve, poor fit]
Cc1ccc(S(=O)(=O)Nc2cnccc2C(=O)Nc2nc(-c3ccc(Cl)c(Cl)c3)cs2)cc1	–	inconclusive: 37.2 µM [cytotoxic, single point]
Cc1ccc(S(=O)(=O)Nc2cnccc2C(=O)Nc2ccc3ccccc3c2)cc1	–	inconclusive: 20.9 µM [cytotoxic, partial curve, poor fit]
COc1ccc(C(=O)Nc2nc(-c3ccccc3)cs2)c(OC)c1	inactive: 12%	–
Cc1ccc(S(=O)(=O)Nc2cnccc2C(=O)Nc2nc(-c3ccccc3F)cs2)cc1	–	inconclusive: 18.7 µM [cytotoxic, partial curve, poor fit]
Cc1ccc(S(=O)(=O)Nc2ccc(C(=O)Nc3nc(-c4ccc(Cl)cc4)cs3)cc2)cc1	–	inconclusive: 23.5 µM [cytotoxic, single point]
O=C(Nc1ccc(S(=O)(=O)Nc2nc(-c3ccccc3)cs2)cc1)c1ccc2ccccc2c1	inactive: 2.6%	–
COc1ccc(NS(=O)(=O)c2ccc(C)cc2)c(C(=O)Nc2nc(-c3ccccc3)cs2)c1	–	inconclusive: 14.8 µM [cytotoxic, partial curve, poor fit]
O=C(Nc1ccc(S(=O)(=O)Nc2nccs2)cc1)c1ccncc1	inactive: -4.38%	–
O=C(Nc1ccc(S(=O)(=O)Nc2nccs2)cc1)C1CC(OCc2ccccc2)C1 (stereo not given)	inactive: 9.98%	–
Cc1ccc(-c2cc(C(=O)Nc3ccncc3)c3ccccc3n2)cc1C	–	active: 18.7 µM

Structure (SMILES)	activity change, negative = cytotoxicity	Potency
Cc1ccc(S(=O)(=O)Nc2ccc(C(=O)Nc3nc(-c4ccccc4)cs3)cc2Cl)cc1	–	inconclusive: 23.5 µM [cytotoxic, single point]
Cc1ccc(-c2cc(C(=O)Nc3ccc([N+](=O)[O-])cc3)c3ccccc3n2)cc1C	–	inconclusive: 0.001 µM
Cc1ccc(S(=O)(=O)Nc2cnccc2C(=O)Nc2nc(C3CCC3)cs2)cc1	–	inconclusive: 18.7 µM [cytotoxic, single point]
Cc1ccc(S(=O)(=O)Nc2ccncc2C(=O)Nc2nc(-c3ccccc3)cs2)cc1	–	inconclusive: 4.69 µM [cytotoxic, partial curve, poor fit]
Cc1ccc(S(=O)(=O)Nc2cnccc2C(=O)Nc2nc(-c3ccc(C)c(C)c3)cs2)cc1	–	inconclusive: 20.9 µM [cytotoxic, partial curve, poor fit]
Cc1ccc(S(=O)(=O)Nc2cc(Br)ccc2C(=O)Nc2nc(-c3ccccc3)cs2)cc1	inconclusive: -86.2%	–
COc1c(NS(=O)(=O)c2ccc(C)cc2)cccc1C(=O)Nc1nc(-c2ccccc2)cs1	–	active: 1.48 µM
Cc1ccc(NS(=O)(=O)c2ccc(C(=O)Nc3nc(-c4ccccc4)cs3)cc2)cc1	–	inconclusive: 23.5 µM [cytotoxic, single point]
Cc1ccc(S(=O)(=O)Nc2ccc(Cl)cc2C(=O)Nc2nc(-c3ccccc3)cs2)cc1	–	active: 4.18 µM and active: 5.9 µM
Cc1ccc(S(=O)(=O)Nc2ccccc2C(=O)Nc2ccc(-c3ccccc3)cn2)cc1	–	inconclusive: 33.2 µM [cytotoxic, single point]
Cc1ccc(-c2cc(C(=O)Nc3ccc(-c4noc(=O)[nH]4)cc3)c3ccccc3n2)cc1C	–	inconclusive: 0.0526 µM [rising, full curve, poor fit]
Cc1ccc(-c2cc(C(=O)Nc3ccc(C(N)=O)cc3)c3ccccc3n2)cc1C	inconclusive: -46.6%	–
Cc1noc(C)c1S(=O)(=O)Nc1cnccc1C(=O)Nc1nc(-c2ccccc2)cs1	inactive: 2.82%	–
Cc1ccc(-c2cc(C(=O)N3CC[S+](=O)([O-])CC3)c3ccccc3n2)cc1C	inactive: 20.6%	–
CCS(=O)(=O)N1CCC(C(=O)Nc2ccc(S(=O)(=O)Nc3nccs3)cc2)CC1	inactive: -0.738%	–
Cc1ccc(S(=O)(=O)Nc2cc(Cl)cc(C(=O)Nc3nc(-c4ccccc4)cs3)c2)cc1	–	inconclusive: 33.2 µM [cytotoxic, single point]
Cc1ccc(-c2cc(C(=O)NCc3ccc(S(C)(=O)=O)cc3)c3ccccc3n2)cc1C	–	inconclusive: 0.0187 µM [rising, full curve, poor fit]

A second format for part of the listing above.
Structure (SMILES) | activity change, negative = cytotoxicity | Potency
Cc1ccc(S(=O)(=O)Nc2cc(Br)ccc2C(=O)Nc2nc(-c3ccccc3)cs2)cc1 | inconclusive: -86.2% | –
COc1c(NS(=O)(=O)c2ccc(C)cc2)cccc1C(=O)Nc1nc(-c2ccccc2)cs1 | – | active: 1.48 µM
